Results deposited as PubChem BioAssay AID1259405 (NCATS, 2018)
Purpose: 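Silenced genes that increase secreted GFP made by CHO cells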 (primary screen). System: Chinese hamster CHO-K1 ovary cells with stable secreted eGFP expression. Reagent: single siRNA against mouse genes, 0.8 pmol siRNA per well (2 µl of 400 nM stock). Time to read-out: 3 days. Measured: 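Percent of the per-plate non-targeting control median for intracellular GFP per well by laser scanning cytometry and for cell viability by ATP luminescence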. Scale: GFP, % of control: higher = more GFP per well, higher productivity; viability (ATP), % of control: higher = more viable cells (more ATP). Hit rule: 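a knock-down is called active if GFP reaches 120% or more of non-targeting control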.
The deposit covers about 50,000 reagents; shown is a random part of them. About 4,000 of them (8%) count as active. 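Mouse siRNA library applied to hamster cells; one well for each siRNA.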 Unmarked entries are inactive. The numbers tell different reagents against one gene apart.

target gene,reagent no.,"GFP, % of control","viability (ATP), % of control"
Pten,1,28.1,26.1
Pten,2,58.5,69.4
Pten,3,105,78
Pten,4,115,75.7
Pten,5,68.1,55.6
Pten,6,82.2,57.8
Rassf1,1,148 (active),87.9
Rassf1,2,62.7,78.5
Rassf1,3,52.5,62.6
Mtss2,1,60.9,70.8
Mtss2,2,75.2,89.5
Mtss2,3,102,105
Or13a25,1,122 (active),78.4
Or13a25,2,99,99.3
Or13a25,3,168 (active),105
Rhox5,1,114,108
Rhox5,2,81.9,62.5
Rhox5,3,125 (active),57.7
Sf3a3,1,113,103
Sf3a3,2,118,85.4
Hrh3,1,109,80.7
Hrh3,2,86.5,48.3
Hrh3,3,68.9,67.5
Gdf15,1,48.7,42.7
Gdf15,2,62.2,57.7
Gdf15,3,94.7,55
Wnt2b,1,75.7,85
Wnt2b,2,36.2,50.3
Wnt2b,3,80.1,57.1
Olfr257,1,23.7,30.1
Olfr257,2,51.8,73.1
Olfr257,3,41.1,46.6
Dnajc30,1,94.4,90.4
Dnajc30,2,91.5,91.9
Mprip,1,119,104
Mprip,2,66.9,90.9
4933434M16Rik,1,90.6,81.2
4933434M16Rik,2,62.5,71.6
4933434M16Rik,3,65.4,53.9
Epb41l1,1,55.2,70
Epb41l1,2,82.1,67.8
Epb41l1,3,43.9,60.3
Fam163b,1,116,95.9
Fam163b,2,63.3,64.8
Fam163b,3,84.4,107
Zfp738,1,97.5,58.4
Zfp738,2,66,73.4
Zfp738,3,95.9,71.5
Zfp738,4,54.1,52.5
Zfp738,5,78.2,99.5
Zfp738,6,101,114
Arr3,1,86.9,89.3
Arr3,2,58.4,63.6
Tgm5,1,146 (active),109
Tgm5,2,62.5,89.5
Tgm5,3,43,66.8
Epop,1,56.3,74
Epop,2,142 (active),62.1
Epop,3,170 (active),75.3
Sult4a1,1,38.6,43.8
Sult4a1,2,67.4,121
Sult4a1,3,86.8,105
Fastk,1,33.8,48.3
Zmym2,1,43.4,46.1
Zmym2,2,88.8,69.3
Zmym2,3,91.3,116
Tfpi,1,80.7,60.9
Tfpi,2,70.5,44.9
Tfpi,3,104,109
Cyp4f39,1,54.1,65.8
Cyp4f39,2,68.1,74.1
Cyp4f39,3,74.8,83.6
Smyd3,1,90.6,101
Smyd3,2,80.2,101
a,1,72.6,58.7
a,2,60.3,61.6
a,3,85,81.1
Cga,1,56,48.3
Cga,2,88.8,77.2
Cga,3,62.8,45.3
Sir2l1,1,45.3,49.4
Sir2l1,2,92.8,94.3
Sir2l1,3,102,137
Hspb2,1,28.8,35.7
Hspb2,2,119,101
Hspb2,3,109,108
Itpr2,1,147 (active),98.8
Itpr2,2,78,37.7
Itpr2,3,69.4,65.2
Tacc2,1,63.9,60.6
Tacc2,2,94.6,67
Tacc2,3,144 (active),115
Rab27a,1,142 (active),93.9
Rab27a,2,29.3,61.3
Rab27a,3,54.3,57
Mrps35,1,83,82.1
Mrps35,2,60.9,58.1
Mrps35,3,98.1,63.4
Bub3,1,34.1,32.6
Bub3,2,84.4,70
Bub3,3,109,89.7
Or4c100,1,57.4,36.6
Or4c100,2,71.1,81
Or4c100,3,111,67.7
Lmbr1l,1,65.4,69.2
Lmbr1l,2,70.4,64.1
Lmbr1l,3,75.3,68.1

7 consecutive records already listed, for reference:
target gene,reagent no.,"GFP, % of control","viability (ATP), % of control"
Sf3a3,1,113,103
Sf3a3,2,118,85.4
Hrh3,1,109,80.7
Hrh3,2,86.5,48.3
Hrh3,3,68.9,67.5
Gdf15,1,48.7,42.7
Gdf15,2,62.2,57.7
